These results are taken from publication PMC11241769, “Comprehensive Characterization of Phytochemical Composition, Membrane Permeability, and Antiproliferative Activity of Juglans nigra Polyphenols” (International Journal of Molecular Sciences, 2024).

In general, IC50 refers to the concentration that gives 50% inhibition.

Experiment [1] relates to MDA-MB-231 human breast adenocarcinoma cells. Kind of experiment: in vitro cytostatic (antiproliferative) activity, Alamar Blue (resazurin) assay, MDA-MB 231. It is filed as cell-based. The settings on record: MDA-MB 231 breast carcinoma cell culture. How it is done: (§1) For the evaluation of the in vitro antiproliferative activity of the compounds, the cell viability was determined by resazurin (Alamar Blue) assay on MDA-MB 231 breast carcinoma, A2058 melanoma, and HT-29 colon carcinoma cell culture. The control wells were treated only with serum-free medium.
(§2) The cytostatic effect of the compounds was studied on tumor cell cultures in vitro. MDA-MB-231 human breast adenocarcinoma cells were cultured in DMEM medium supplemented with 10% FBS, 2 mM L-glutamine, penicillin–streptomycin antibiotics mixture (50 IU/mL, and 50 μg/mL, respectively), 1 mM sodium pyruvate, and 1% non-essential amino acid mixture. A2058 human melanoma cells, and HT-29 colorectal carcinoma cells were cultured in RPMI medium supplemented with 10% FBS, 2 mM L-glutamine, and penicillin–streptomycin antibiotics mixture (50 IU/mL and 50 μg/mL, respectively). Cell lines were generous gifts from Dr. József Tóvári (Department of Experimental Pharmacology, National Institute of Oncology, Budapest, Hungary).
(§3) All cell cultures were maintained at 37 °C in a humidified atmosphere with 5% CO2. […] After that, cell viability was determined using the Alamar Blue assay. […] Fluorescence intensity in each well was measured using a Synergy H4 multimode microplate reader (BioTek, Winooski, VT); at λex = 530/30 and λem = 610/10 nm. […]
For orientation: The colour change of resazurin is a common sign of viable cells or microbes.

In experiment [2] the test system is A2058 human melanoma cells. Description: in vitro cytostatic (antiproliferative) activity, Alamar Blue (resazurin) assay, A2058. Type of experiment: cell-based. The conditions noted are these: A2058 melanoma cell culture. As for the experimental part: as §1, §2, §3

In the case of `CC/C(=C(\c1ccccc1)c1ccc(OCCN(C)C)cc1)c1ccccc1` [Tamoxifen, tamoxifen, reference compound], the results for the IC50 in experiment [1] and in experiment [2] were 3.4 ± 0.7 µM and 1 ± 0.2 µM, respectively.
